The text below walks through data of paper PMC10075967.

Sequences of proteins named here, by UniProt entry; tags and fusion partners are left off.
UniProt Q8VII8: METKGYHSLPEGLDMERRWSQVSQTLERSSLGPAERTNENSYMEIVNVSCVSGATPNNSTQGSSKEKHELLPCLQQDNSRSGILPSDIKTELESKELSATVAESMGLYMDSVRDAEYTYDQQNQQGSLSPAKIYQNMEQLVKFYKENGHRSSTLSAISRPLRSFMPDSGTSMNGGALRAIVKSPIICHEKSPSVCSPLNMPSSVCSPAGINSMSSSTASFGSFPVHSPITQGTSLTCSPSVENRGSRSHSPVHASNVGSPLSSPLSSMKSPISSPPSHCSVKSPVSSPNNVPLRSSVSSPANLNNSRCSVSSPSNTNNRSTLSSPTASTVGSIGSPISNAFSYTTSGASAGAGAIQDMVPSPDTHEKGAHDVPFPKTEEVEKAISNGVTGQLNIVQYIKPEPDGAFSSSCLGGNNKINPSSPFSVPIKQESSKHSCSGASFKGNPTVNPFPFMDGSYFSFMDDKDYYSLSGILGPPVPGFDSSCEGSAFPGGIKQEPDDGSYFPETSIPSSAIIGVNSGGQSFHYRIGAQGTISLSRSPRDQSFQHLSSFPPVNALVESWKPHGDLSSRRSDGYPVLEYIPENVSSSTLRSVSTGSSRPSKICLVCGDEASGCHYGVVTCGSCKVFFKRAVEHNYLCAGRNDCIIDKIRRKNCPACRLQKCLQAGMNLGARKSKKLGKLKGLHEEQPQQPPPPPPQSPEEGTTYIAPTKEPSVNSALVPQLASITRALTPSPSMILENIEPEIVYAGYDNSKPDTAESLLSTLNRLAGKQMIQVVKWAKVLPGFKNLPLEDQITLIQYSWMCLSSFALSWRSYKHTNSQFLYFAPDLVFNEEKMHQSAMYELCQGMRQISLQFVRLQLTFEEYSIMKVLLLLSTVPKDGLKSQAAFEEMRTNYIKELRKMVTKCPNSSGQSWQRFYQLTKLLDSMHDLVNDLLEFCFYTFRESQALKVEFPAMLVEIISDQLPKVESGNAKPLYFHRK
UniProt O09106: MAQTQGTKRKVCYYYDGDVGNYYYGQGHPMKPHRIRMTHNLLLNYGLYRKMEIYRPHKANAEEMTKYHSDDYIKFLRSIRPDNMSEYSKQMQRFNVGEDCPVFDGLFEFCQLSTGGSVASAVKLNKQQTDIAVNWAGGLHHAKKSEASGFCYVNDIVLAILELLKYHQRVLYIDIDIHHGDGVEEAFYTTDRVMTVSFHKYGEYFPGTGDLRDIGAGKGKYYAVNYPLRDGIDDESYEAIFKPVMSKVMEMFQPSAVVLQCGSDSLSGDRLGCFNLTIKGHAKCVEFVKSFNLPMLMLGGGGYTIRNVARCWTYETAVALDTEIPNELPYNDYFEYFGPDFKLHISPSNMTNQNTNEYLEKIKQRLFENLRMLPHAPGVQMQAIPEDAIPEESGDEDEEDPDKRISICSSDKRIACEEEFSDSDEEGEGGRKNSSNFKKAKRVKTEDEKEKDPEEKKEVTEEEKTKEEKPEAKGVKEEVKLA
UniProt Q60974: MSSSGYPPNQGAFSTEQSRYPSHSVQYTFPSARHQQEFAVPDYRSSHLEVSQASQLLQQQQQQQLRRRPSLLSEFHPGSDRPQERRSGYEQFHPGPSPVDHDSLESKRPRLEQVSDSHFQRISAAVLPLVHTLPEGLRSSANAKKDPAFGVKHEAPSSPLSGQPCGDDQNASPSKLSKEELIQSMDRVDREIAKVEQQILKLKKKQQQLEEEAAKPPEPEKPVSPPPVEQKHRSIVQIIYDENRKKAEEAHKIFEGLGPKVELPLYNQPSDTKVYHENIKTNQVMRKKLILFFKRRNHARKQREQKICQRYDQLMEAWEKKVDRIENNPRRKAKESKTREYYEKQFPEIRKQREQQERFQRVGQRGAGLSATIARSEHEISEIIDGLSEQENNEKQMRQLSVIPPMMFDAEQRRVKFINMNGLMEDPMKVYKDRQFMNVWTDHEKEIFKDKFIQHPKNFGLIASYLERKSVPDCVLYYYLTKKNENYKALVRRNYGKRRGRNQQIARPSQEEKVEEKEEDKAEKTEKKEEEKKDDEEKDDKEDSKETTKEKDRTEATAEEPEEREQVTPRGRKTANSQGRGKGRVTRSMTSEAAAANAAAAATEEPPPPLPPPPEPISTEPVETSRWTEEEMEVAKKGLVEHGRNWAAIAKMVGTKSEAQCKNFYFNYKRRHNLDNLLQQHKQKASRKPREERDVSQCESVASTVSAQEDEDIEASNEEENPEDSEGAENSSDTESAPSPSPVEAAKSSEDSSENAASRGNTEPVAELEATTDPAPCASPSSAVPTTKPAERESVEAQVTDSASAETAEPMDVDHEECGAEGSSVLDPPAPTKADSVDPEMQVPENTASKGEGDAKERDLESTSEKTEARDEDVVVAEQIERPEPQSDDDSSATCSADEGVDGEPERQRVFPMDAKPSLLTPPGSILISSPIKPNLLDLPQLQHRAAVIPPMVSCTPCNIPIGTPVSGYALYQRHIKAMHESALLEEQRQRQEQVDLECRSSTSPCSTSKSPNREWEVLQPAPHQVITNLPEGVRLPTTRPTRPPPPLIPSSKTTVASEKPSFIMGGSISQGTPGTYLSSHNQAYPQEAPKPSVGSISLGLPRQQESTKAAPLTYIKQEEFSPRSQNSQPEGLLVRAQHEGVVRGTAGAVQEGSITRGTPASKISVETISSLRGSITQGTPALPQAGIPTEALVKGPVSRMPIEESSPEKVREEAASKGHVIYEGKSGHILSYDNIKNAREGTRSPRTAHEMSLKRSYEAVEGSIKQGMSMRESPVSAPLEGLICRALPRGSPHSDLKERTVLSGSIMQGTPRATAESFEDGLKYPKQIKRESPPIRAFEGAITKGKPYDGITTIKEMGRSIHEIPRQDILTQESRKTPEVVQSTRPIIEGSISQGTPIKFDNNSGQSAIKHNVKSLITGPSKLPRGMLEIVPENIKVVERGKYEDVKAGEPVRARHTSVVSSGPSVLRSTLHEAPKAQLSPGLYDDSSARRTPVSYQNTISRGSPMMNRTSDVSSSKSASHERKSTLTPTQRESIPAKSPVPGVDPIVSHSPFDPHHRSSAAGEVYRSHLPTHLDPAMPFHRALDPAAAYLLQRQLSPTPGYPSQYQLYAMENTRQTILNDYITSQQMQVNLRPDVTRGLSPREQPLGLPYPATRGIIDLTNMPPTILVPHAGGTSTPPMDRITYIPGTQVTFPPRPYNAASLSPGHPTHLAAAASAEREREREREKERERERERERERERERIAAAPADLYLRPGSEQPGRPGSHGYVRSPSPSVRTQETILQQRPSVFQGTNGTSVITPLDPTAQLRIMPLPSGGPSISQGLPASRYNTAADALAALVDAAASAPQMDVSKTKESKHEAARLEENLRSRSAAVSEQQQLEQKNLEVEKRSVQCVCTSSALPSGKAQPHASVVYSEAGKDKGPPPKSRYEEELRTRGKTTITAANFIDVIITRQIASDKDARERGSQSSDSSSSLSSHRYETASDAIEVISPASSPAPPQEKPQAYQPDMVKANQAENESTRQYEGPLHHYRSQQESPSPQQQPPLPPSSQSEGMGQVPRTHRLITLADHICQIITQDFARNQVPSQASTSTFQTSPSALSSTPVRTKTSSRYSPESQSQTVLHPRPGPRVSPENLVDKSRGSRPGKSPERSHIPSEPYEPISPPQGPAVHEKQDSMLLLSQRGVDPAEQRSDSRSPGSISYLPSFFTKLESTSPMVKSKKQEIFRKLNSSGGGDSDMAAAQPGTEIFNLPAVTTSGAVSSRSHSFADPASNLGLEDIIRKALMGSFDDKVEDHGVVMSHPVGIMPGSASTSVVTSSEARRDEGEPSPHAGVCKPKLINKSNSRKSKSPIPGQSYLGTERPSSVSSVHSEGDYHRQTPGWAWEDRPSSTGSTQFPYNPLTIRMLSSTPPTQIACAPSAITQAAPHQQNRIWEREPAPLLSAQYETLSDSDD

B1: HDAC6 (enzyme, UniProt Q9Z2V5 1-1149)
chain: MTSTGQDSSTRQRKSRHNPQSPLQESSATLKRGGKKCAVPHSSPNLAEVKKKGKMKKLSQPAEEDLVVGLQGLDLNPETRVPVGTGLVFDEQLNDFHCLWDDSFPESPERLHAIREQLILEGLLGRCVSFQARFAEKEELMLVHSLEYIDLMETTQYMNEGELRVLAETYDSVYLHPNSYSCACLATGSVLRLVDALMGAEIRNGMAVIRPPGHHAQHNLMDGYCMFNHLAVAARYAQKKHRIQRVLIVDWDVHHGQGTQFIFDQDPSVLYFSIHRYEHGRFWPHLKASNWSTIGFGQGQGYTINVPWNQTGMRDADYIAAFLHILLPVASEFQPQLVLVAAGFDALHGDPKGEMAATPAGFAHLTHLLMGLAGGKLILSLEGGYNLRALAKGVSASLHTLLGDPCPMLESCVVPCASAQTSIYCTLEALEPFWEVLERSVETQEEDEVEEAVLEEEEEEGGWEATALPMDTWPLLQNRTGLVYDEKMMSHCNLWDNHHPETPQRILRIMCHLEEVGLAARCLILPARPALDSELLTCHSAEYVEHLRTTEKMKTRDLHREGANFDSIYICPSTFACAKLATGAACRLVEAVLSGEVLNGIAVVRPPGHHAEPNAACGFCFFNSVAVAARHAQIIAGRALRILIVDWDVHHGNGTQHIFEDDPSVLYVSLHRYDRGTFFPMGDEGASSQVGRDAGIGFTVNVPWNGPRMGDADYLAAWHRLVLPIAYEFNPELVLISAGFDAAQGDPLGGCQVTPEGYAHLTHLLMGLAGGRIILILEGGYNLASISESMAACTHSLLGDPPPQLTLLRPPQSGALVSISEVIQVHRKYWRSLRLMKMEDKEECSSSRLVIKKLPPTASPVSAKEMTTPKGKVPEESVRKTIAALPGKESTLGQAKSKMAKAVLAQGQSSEQAAKGTTLDLATSKETVGGATTDLWASAAAPENFPNQTTSVEALGETEPTPPASHTNKQTTGASPLQGVTAQQSLQLGVLSTLELSREAEEAHDSEEGLLGEAAGGQDMNSLMLTQGFGDFNTQDVFYAVTPLSWCPHLMAVCPIPAAGLDVSQPCKTCGTVQENWVCLTCYQVYCSRYVNAHMVCHHEASEHPLVLSCVDLSTWCYVCQAYVHHEDLQDVKNAAHQNKFGEDMPHSH

These are yes or no findings as the source states them, for the method shown. Binding seen in cells or lysates may run through a third protein. Some entries that bind do so weakly or less than the wild type.

The assay deals with flagMR (FLAG-tagged mineralocorticoid receptor, nuclear receptor subfamily 3 group C member 2) (UniProt Q8VII8). The assay can be described thus: co-IP; lysates of primary hepatocytes from wild-type mice infected with AdV-flagMR; IP lysis buffer with protease inhibitor cocktail; primary antibody or normal IgG overnight at 4°C, protein A/G beads 4 hours at 4°C; Western blotting. (A western blot detects proteins with antibodies after separation by electrophoresis.)
For “HDAC1 (from UniProt O09106 1-482) (enzyme)”, the binding result is “no binding”.
As for “Nuclear receptor corepressor 1 (NCOR1) (from UniProt Q60974 1-2453)”, the entry is “binds”; as for B1, “no binding”.
